Measurements taken from patent US20090318465A1, “METHOD FOR IDENTIFYING COMPOUNDS THAT ACT AS INSULIN-SENSITIZERS” (priority 2006, published 2009).
At least one compound was matched to its structure with a doubt left.

System: dexamethasone treated insulin resistant 3T3-L1 adipocytes
Assay: Insulin resistance assay (IR assay), 14C-2-deoxyglucose uptake
Assay type: cell-based, mouse
Details: Rosiglitazone 0.1 μM standard, glucose uptake with 200 nM insulin, vehicle = 1.0
From the text: A suitable insulin resistance assay includes screening of compounds which act as insulin-sensitizers using chronically dexamethasone treated 3T3-L1 adipocytes as an in vitro model. This is a known model for studying insulin signaling and insulin resistance. Chronically dexamethasone treated 3T3-L1 adipocytes serve as a valid in vitro model of insulin resistance resembling diabetes patients.
In an embodiment, the method according to the present invention includes screening compounds identified as active in the phenotype-based assay against dexamethasone treated insulin resistant adipocytes. For example, the method can include applying actives from the insulin sensitivity assay at a concentration of 1-10 μM to the insulin resistant adipocytes for 1-4 days. The adipocytes were previously prepared for the assay by long term exposure to dexamethasone, for example, at 100 nM for about 24-48 hours.
The method can also include determining whether the compounds enhance glucose uptake in the insulin resistant adipocytes by more than 50% above that enhanced by insulin. The method can then include selecting compounds as active, if they caused 1.5 fold or more increase in glucose uptake compared to insulin treated adipocytes. Glucose uptake can be measured by any of a variety of known methods, such as measuring uptake of ^14C-labeled 2-deoxyglucose, a non metabolisable analogue of D-Glucose. […]

CN(CCOc1ccc(CC2SC(=O)NC2=O)cc1)c1ccccn1 (stereo not shown) [Rosiglitazone, reference compound]
Fold vehicle (fold activity over vehicle): 2.6 ± 0.1
